# In PubChem BioAssay (NCATS):
# Inconclusive means that the source gave no clear call. Such entries were picked first, then a sample of the others. Potencies of inconclusive entries are doubtful fits and often do not repeat. Activity calls are given as the source filed them. The call rests on the fitted dose curve; in most records, active means well fitted activation curve with a large enough effect; inconclusive means small, poorly fitted or top-dose-only effect, or another doubt; inactive means no such curve, though single readings can be large or run the other way.
# Molecular target: Rap guanine nucleotide exchange factor 3 (Homo sapiens) (UniProt O95398)
# Test: Counterscreen qHTS for agonist of cAMP-regulated guanine nucleotide exchange factor 3 (EPAC1) (AID 1645889); further: nearly all actives have a fitted effect of over 40% in size; on activation: % of control where 0% means no effect
# Details: EPAC1 Rap1B-BODIPY-GDP exchange, fluorescence; activation: at 154 µM (top of the series) unless noted
# Outline: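 Rap1B–BODIPY-GDP (250 nM) with 50 uM GDP; compounds pin-transferred to 9.74 nM–152 uM final (activator) or from 7.32 nM upwards (inhibitor). Fluorescence Ex/Em 480/540 nm read at 5 and 30 min, then after adding cAMP or buffer, at room temperature.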
# Potency means the concentration at half of the fitted maximal effect.
SMILES,Potency,activation
CN1CCN(CCC(=O)Nc2ccc(Cl)cc2)CC1,"inconclusive: 44.7 µM [activator, partial curve, poor fit]",
Cc1ccc(S(=O)(=O)/N=C2\SC(CC(=O)Nc3ccc(F)cc3)C(=O)N2c2ccccc2)cc1 (configuration not stated),"inconclusive: 12.6 µM [activator, partial curve]",
Oc1ccc(NCc2cccs2)cc1,,inactive: 21.5% [at 30.8 µM]
O=C(/C=C/c1ccco1)Nc1cccc(C(=O)Nc2ccccc2C(=O)O)c1,,inconclusive: 38.5% [activator] [at 30.8 µM]
COC(=O)c1ccc2nc(-c3ccc(Cl)cc3)c(CC3CCCCC3)n2c1,inactive,
COc1ccc(C)cc1Cn1nnc2ccccc21,inactive,
CCc1cccc2sc(N3CCN(C(=O)C4CC4)CC3)nc12,,inconclusive: 49.8% [activator]
COc1cc(C)cc(C(=O)C=Cc2ccccc2)c1O,,inconclusive: 51.9% [activator] [at 30.8 µM]
CC1CN(C(=O)N2CCOCC2)CCN1C(=O)N1CCOCC1 (configuration not stated),"inconclusive: 2.24 µM [activator, full curve]",
Fc1cc(F)c(F)c(SCn2cc(Br)cn2)c1F,,inconclusive: 27.5% [activator] [at 30.8 µM]
Cc1nc(Nc2ccc(S(=O)(=O)N3CCCCC3C)cc2)c2nnn(Cc3ccccc3)c2n1 (configuration not stated),inactive,
CCC(C)N(C(=O)COC(=O)C1CCN(S(=O)(=O)c2ccc(C)c(C)c2)CC1)C1CCS(=O)(=O)C1 (configuration not stated),,inconclusive: 31.6% [activator]
